Experimental data: PMC4742970 (Nature Communications, 2016)
No constants are given. Whether binding was seen depends on the method and setting. Some entries that bind do so weakly or less than the wild type. Sequences can lack the tags named with a protein.

Target: T1, Msh2HA (Msh2 subunit with an HA epitope tag), expressed in S. cerevisiae (S. cerevisiae) (UniProt P25847)
T1 sequence: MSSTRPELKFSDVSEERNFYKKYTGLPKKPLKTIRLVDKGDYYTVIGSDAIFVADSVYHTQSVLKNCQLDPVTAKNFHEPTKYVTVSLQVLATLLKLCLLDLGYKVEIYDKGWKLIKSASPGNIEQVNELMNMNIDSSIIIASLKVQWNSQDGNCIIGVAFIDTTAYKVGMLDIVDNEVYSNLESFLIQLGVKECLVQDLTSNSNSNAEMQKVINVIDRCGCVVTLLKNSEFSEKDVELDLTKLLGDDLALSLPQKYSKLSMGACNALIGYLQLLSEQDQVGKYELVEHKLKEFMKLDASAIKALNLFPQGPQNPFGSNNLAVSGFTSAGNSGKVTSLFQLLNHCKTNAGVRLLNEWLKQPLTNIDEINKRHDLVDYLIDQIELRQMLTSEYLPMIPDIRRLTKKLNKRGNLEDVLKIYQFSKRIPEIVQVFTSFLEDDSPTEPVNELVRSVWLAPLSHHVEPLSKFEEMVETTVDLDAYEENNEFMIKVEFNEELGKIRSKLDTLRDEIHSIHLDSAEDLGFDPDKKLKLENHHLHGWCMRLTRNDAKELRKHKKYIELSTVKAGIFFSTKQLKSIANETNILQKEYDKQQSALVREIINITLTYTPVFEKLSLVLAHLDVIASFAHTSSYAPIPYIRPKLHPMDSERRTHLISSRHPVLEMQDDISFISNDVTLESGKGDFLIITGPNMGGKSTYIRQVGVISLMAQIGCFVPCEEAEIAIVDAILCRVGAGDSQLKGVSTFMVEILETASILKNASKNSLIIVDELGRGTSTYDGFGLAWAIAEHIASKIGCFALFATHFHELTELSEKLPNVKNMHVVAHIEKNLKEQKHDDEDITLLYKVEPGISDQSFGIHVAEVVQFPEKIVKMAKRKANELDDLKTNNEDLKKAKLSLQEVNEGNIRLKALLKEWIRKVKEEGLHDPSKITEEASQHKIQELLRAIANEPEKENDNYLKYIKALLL
Assay: co-purification by chromatography; the two subunits overexpressed in S. cerevisiae and purified together by sequential ion exchange chromatography and ssDNA-affinity chromatography

B1: Msh3, expressed in S. cerevisiae (protein, UniProt P25336 1-1018)
chain: MAGQPTISRFFKKAVKSELTHKQEQEVAVGNGAGSESICLDTDEEDNLSSVASTTVTNDSFPLKGSVSSKNSKNSEKTSGTSTTFNDIDFAKKLDRIMKRRSDENVEAEDDEEEGEEDFVKKKARKSPTAKLTPLDKQVKDLKMHHRDKVLVIRVGYKYKCFAEDAVTVSRILHIKLVPGKLTIDESNPQDCNHRQFAYCSFPDVRLNVHLERLVHHNLKVAVVEQAETSAIKKHDPGASKSSVFERKISNVFTKATFGVNSTFVLRGKRILGDTNSIWALSRDVHQGKVAKYSLISVNLNNGEVVYDEFEEPNLADEKLQIRIKYLQPIEVLVNTDDLPLHVAKFFKDISCPLIHKQEYDLEDHVVQAIKVMNEKIQLSPSLIRLVSKLYSHMVEYNNEQVMLIPSIYSPFASKIHMLLDPNSLQSLDIFTHDGGKGSLFWLLDHTRTSFGLRMLREWILKPLVDVHQIEERLDAIECITSEINNSIFFESLNQMLNHTPDLLRTLNRIMYGTTSRKEVYFYLKQITSFVDHFKMHQSYLSEHFKSSDGRIGKQSPLLFRLFSELNELLSTTQLPHFLTMINVSAVMEKNSDKQVMDFFNLNNYDCSEGIIKIQRESESVRSQLKEELAEIRKYLKRPYLNFRDEVDYLIEVKNSQIKDLPDDWIKVNNTKMVSRFTTPRTQKLTQKLEYYKDLLIRESELQYKEFLNKITAEYTELRKITLNLAQYDCILSLAATSCNVNYVRPTFVNGQQAIIAKNARNPIIESLDVHYVPNDIMMSPENGKINIITGPNMGGKSSYIRQVALLTIMAQIGSFVPAEEIRLSIFENVLTRIGAHDDIINGDSTFKVEMLDILHILKNCNKRSLLLLDEVGRGTGTHDGIAISYALIKYFSELSDCPLILFTTHFPMLGEIKSPLIRNYHMDYVEEQKTGEDWMSVIFLYKLKKGLTYNSYGMNVAKLARLDKDIINRAFSISEELRKESINEDALKLFSSLKRILKSDNITATDKLAKLLSLDIH
In the case of B1, the binding is reported as “binds”.
